This is one part of the list.
The targets below were run with C1=CC=C(C=C1)C2=NC(=C(N2)C3=CC=NC=C3)C4=CC(=C(C=C4)Cl)O (assay: log2 fold change, soluble protein after heating vs DMSO (PISA); higher = thermal stabilisation; K562 cells, 10 uM, 30 min; active = over 0.2 and 3.5 SD of the protein, either way, in both replicates (recomputed)).
Procedure, shortened: (§1)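 K562 cells at 2×10^6 cells/mL were given 10 μM compound for 30 min. Aliquots then went through 3 min of heating across 48°C-58°C, were pooled, and were extracted in PBS with 0.5% NP-40 at 4°C, and the supernatant after 21,000xg for 90 min was quantified by TMTpro 16plex LC-MS/MS with channel sums equalised. Thermal stability relative to control samples, from duplicates, is given as log2 fold change.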

The chains behind the UniProt entries cited, without tags or fusion partners. Where a name states a change or a piece, a line headed by the entry shows the natural chain unless it says otherwise.
UniProt P05387, whole entry, looked up: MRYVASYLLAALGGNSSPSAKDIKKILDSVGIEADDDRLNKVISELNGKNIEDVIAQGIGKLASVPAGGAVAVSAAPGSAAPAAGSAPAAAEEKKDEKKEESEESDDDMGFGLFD
UniProt P78345: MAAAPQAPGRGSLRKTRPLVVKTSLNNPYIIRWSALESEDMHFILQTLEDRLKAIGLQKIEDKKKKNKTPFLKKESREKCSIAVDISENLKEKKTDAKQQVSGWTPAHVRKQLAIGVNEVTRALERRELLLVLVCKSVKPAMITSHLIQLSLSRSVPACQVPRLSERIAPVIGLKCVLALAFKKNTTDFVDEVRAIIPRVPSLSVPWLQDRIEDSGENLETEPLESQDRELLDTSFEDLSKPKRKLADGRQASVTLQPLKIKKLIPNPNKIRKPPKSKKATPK
UniProt P27694, whole entry, looked up: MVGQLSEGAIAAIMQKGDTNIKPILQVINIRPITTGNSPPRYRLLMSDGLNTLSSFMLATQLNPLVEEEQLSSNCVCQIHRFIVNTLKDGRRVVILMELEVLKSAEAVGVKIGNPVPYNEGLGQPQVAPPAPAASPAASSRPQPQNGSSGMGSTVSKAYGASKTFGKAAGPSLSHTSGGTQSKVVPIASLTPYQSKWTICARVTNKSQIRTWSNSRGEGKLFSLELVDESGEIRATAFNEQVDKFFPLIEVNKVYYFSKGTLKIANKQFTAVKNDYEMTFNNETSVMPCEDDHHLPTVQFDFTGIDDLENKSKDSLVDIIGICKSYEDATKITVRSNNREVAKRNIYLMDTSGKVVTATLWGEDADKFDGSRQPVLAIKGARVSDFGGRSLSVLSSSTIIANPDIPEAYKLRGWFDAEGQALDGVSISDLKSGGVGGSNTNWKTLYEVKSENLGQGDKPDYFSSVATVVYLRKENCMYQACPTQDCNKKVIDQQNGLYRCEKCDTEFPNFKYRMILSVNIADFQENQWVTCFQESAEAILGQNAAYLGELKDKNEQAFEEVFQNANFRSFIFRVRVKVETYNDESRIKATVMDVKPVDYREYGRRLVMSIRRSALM
UniProt P78346: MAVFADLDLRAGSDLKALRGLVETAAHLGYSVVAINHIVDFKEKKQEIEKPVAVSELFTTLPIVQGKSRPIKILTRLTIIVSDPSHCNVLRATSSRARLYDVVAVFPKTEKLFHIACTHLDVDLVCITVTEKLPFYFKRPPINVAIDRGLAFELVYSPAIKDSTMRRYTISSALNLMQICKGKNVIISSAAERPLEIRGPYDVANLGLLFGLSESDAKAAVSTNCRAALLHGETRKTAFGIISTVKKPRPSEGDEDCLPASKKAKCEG
UniProt Q15418, whole entry, looked up: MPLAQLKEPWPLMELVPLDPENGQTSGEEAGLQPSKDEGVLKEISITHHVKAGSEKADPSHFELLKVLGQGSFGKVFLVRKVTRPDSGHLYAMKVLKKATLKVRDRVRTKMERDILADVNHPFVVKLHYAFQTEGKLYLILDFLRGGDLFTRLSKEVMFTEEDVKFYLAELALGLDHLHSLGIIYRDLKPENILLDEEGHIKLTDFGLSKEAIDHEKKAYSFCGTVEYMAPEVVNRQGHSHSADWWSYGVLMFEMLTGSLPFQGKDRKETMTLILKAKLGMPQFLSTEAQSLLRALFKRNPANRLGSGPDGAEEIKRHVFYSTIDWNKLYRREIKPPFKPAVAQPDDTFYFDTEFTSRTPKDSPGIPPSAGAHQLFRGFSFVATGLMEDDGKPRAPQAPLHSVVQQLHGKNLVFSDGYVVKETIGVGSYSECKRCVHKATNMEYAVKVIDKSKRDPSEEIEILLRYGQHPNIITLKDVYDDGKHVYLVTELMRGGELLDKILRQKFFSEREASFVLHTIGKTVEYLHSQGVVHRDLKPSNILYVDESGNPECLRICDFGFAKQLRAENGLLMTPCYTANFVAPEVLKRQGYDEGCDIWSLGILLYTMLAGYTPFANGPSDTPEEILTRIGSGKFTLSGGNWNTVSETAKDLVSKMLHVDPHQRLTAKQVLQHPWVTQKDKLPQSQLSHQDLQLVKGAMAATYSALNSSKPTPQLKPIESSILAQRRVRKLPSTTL
UniProt Q9H4A4: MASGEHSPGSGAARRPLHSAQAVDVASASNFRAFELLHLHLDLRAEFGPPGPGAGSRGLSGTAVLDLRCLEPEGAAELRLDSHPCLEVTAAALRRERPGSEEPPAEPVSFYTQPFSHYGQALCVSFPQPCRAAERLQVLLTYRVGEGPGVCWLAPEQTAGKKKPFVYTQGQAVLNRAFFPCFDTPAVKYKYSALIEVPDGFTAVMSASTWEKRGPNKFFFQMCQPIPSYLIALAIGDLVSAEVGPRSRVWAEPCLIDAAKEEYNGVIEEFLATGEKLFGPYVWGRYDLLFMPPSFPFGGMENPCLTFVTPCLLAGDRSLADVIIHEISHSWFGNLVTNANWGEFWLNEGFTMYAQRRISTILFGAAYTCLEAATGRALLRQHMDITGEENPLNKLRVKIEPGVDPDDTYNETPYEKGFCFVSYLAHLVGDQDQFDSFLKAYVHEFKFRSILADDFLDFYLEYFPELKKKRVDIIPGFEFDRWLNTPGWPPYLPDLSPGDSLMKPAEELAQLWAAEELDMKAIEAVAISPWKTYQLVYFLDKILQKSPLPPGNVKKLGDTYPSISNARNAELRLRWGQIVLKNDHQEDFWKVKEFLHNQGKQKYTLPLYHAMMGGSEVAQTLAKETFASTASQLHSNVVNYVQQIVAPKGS
UniProt P23443: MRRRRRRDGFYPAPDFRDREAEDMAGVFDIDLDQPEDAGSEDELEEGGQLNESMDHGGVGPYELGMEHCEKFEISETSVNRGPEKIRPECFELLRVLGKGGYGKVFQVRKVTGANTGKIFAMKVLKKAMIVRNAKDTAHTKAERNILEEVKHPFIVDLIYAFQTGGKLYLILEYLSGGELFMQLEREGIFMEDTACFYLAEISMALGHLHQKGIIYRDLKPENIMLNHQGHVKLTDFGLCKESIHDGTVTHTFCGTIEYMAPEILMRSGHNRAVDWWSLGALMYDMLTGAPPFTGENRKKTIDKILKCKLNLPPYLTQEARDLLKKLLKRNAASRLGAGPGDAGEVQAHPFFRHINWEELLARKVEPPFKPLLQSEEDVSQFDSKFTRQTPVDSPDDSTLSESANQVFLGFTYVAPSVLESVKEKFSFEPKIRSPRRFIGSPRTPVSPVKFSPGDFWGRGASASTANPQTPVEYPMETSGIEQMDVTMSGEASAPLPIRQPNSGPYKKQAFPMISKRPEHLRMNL
UniProt P10155: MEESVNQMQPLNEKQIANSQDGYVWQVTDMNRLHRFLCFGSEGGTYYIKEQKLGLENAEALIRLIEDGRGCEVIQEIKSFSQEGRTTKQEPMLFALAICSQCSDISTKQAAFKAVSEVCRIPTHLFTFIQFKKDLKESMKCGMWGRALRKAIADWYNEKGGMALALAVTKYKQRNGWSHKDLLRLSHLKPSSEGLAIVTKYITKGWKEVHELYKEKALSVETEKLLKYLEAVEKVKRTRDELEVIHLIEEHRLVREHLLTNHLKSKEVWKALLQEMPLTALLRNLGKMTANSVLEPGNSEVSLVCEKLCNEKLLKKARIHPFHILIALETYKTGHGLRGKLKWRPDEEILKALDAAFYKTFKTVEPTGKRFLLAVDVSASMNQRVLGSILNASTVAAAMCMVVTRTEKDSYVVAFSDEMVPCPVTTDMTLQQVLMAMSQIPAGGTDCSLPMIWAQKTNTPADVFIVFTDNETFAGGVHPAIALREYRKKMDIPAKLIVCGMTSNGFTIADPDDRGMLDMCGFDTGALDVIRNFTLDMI
UniProt Q15349, whole entry, looked up: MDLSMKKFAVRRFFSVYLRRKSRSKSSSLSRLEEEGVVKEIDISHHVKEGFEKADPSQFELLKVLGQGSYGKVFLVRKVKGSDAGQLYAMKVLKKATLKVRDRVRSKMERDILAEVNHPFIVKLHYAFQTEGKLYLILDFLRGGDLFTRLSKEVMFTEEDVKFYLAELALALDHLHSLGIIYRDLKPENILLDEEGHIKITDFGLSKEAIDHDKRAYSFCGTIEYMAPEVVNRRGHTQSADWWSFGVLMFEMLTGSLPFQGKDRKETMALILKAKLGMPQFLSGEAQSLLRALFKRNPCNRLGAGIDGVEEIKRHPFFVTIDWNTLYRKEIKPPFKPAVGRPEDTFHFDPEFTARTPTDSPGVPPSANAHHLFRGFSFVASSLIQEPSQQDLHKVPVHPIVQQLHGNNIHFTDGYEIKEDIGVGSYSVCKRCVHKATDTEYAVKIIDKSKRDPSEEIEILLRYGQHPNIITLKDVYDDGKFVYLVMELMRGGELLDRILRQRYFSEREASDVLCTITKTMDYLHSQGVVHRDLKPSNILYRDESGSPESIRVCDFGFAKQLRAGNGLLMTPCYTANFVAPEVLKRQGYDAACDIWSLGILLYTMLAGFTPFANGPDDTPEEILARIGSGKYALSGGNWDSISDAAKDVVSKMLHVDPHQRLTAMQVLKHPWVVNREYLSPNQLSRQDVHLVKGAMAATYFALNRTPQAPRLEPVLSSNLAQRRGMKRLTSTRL
UniProt Q96S38: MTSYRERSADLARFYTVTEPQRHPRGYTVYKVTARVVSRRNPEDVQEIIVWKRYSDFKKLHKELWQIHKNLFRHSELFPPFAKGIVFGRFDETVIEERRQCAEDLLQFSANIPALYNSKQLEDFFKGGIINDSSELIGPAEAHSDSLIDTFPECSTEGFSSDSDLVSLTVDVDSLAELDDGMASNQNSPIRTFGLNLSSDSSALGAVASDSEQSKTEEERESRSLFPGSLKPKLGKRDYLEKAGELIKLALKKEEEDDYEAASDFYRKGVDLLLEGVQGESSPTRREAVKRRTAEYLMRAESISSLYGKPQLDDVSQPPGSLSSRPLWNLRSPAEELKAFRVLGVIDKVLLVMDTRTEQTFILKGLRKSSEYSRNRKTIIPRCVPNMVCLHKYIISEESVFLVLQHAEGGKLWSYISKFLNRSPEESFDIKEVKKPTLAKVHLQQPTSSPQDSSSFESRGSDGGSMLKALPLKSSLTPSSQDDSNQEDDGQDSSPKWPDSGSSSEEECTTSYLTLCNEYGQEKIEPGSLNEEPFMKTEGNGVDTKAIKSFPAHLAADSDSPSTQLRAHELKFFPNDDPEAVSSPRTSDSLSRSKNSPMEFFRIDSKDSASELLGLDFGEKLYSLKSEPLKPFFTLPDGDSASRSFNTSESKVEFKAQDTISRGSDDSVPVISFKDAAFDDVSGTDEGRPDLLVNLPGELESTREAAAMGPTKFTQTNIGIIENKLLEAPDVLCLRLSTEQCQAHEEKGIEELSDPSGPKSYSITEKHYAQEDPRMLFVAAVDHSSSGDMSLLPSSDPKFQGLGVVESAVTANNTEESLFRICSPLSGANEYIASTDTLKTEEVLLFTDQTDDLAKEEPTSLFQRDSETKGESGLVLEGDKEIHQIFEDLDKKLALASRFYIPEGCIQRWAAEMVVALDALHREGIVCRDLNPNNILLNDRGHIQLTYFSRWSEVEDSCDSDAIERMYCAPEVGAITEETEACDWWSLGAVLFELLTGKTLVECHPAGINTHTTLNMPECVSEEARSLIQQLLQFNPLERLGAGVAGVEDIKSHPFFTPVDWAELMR
UniProt Q9H633: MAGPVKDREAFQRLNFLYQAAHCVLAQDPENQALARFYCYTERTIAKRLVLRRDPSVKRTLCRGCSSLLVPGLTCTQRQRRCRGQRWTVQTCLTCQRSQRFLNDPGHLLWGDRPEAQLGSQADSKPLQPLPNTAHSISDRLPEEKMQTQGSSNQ
UniProt Q969K3: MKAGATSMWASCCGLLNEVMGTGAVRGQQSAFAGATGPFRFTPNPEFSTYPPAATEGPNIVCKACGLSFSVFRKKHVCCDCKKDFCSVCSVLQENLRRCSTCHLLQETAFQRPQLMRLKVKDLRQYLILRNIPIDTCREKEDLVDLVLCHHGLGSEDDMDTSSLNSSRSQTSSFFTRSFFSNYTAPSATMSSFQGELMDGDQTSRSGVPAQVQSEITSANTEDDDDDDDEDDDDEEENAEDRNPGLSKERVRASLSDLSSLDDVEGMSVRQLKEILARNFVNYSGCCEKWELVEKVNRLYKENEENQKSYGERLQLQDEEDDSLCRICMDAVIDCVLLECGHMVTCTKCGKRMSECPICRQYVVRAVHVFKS
UniProt Q15287: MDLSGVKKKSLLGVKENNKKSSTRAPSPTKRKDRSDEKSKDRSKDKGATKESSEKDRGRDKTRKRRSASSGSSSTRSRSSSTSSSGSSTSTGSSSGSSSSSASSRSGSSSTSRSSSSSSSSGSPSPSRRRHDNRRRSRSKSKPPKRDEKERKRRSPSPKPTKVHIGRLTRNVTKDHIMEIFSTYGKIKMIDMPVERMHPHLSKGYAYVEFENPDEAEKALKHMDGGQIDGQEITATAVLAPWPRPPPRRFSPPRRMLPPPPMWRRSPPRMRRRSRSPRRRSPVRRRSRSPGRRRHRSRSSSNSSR
UniProt Q9UBF6, whole entry, looked up: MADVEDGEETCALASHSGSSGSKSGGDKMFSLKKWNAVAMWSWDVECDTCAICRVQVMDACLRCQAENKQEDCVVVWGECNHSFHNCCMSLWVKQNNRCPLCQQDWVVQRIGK

Which log2 fold change does the source give for RPLP2 (UniProt P05387) here?
The log2 fold change was inactive: -0.108.

With RPP38 (UniProt P78345) as the target, how does the log2 fold change read?
The log2 fold change was inactive: 0.

RPL29 (UniProt P47914) was tested. Which log2 fold change did it give?
The log2 fold change was inactive: 0.056.

Which log2 fold change does the source give for RPL36 (UniProt Q9Y3U8) here?
Its log2 fold change is inactive: -0.105.

How did the log2 fold change turn out when RPS18 (UniProt P62269) was run?
The log2 fold change was inactive: -0.024.

RPS3 (UniProt P23396) was tested. Which log2 fold change did it give?
The log2 fold change was inactive: -0.073.

How did the log2 fold change turn out when RPL3L (UniProt Q92901) was run?
Its log2 fold change is inactive: -0.179.

For RPTOR (UniProt Q8N122), which log2 fold change is on record?
The log2 fold change was inactive: -0.038.

RPL10 (UniProt P27635) was tested. Which log2 fold change did it give?
The log2 fold change was inactive: -0.019.

With RNH1 (UniProt P13489) as the target, how does the log2 fold change read?
The log2 fold change was inactive: 0.018.

How did the log2 fold change turn out when RPA1 (UniProt P27694) was run?
The log2 fold change was inactive: 0.027.

How did the log2 fold change turn out when RPP30 isoform 2 (UniProt P78346) was run?
The log2 fold change was inactive: -0.037.

Which log2 fold change does the source give for RPS6KA1 isoform 2 (UniProt Q15418) here?
The log2 fold change was inactive: -0.135.

How did the log2 fold change turn out when RNPEP (UniProt Q9H4A4) was run?
Its log2 fold change is inactive: 0.036.

How did the log2 fold change turn out when RPS6KB1 (UniProt P23443) was run?
The log2 fold change was inactive: -0.002.

For RPL18A (UniProt Q02543), which log2 fold change is on record?
The log2 fold change was inactive: -0.148.

How did the log2 fold change turn out when RO60 (UniProt P10155) was run?
The log2 fold change was inactive: -0.034.

RPS3A (UniProt P61247) was tested. Which log2 fold change did it give?
The log2 fold change was inactive: -0.028.

For RPS6KA2 isoform 2 (UniProt Q15349), which log2 fold change is on record?
Its log2 fold change is inactive: -0.132.

With RPL28 (UniProt P46779) as the target, how does the log2 fold change read?
Its log2 fold change is inactive: -0.146.

RPS12 (UniProt P25398) was tested. Which log2 fold change did it give?
Its log2 fold change is inactive: 0.008.

How did the log2 fold change turn out when RPS6KC1 (UniProt Q96S38) was run?
The log2 fold change was inactive: 0.157.

Which log2 fold change does the source give for RNMT isoform 2 (UniProt O43148) here?
Its log2 fold change is inactive: -0.041.

RPP21 isoform 4 (UniProt Q9H633) was tested. Which log2 fold change did it give?
The log2 fold change was inactive: 0.09.

How did the log2 fold change turn out when RPS4X (UniProt P62701) was run?
Its log2 fold change is inactive: -0.043.

With RPS24 isoform 4 (UniProt P62847) as the target, how does the log2 fold change read?
The log2 fold change was inactive: -0.116.

How did the log2 fold change turn out when RPL23A (UniProt P62750) was run?
Its log2 fold change is inactive: -0.042.

Which log2 fold change does the source give for RPS19 (UniProt P39019) here?
Its log2 fold change is inactive: -0.026.

RPA2 isoform 3 (UniProt P15927) was tested. Which log2 fold change did it give?
Its log2 fold change is inactive: -0.107.

How did the log2 fold change turn out when RNF34 isoform 2 (UniProt Q969K3) was run?
The log2 fold change was inactive: -0.017.

How did the log2 fold change turn out when RPL3 (UniProt P39023) was run?
The log2 fold change was inactive: -0.117.

How did the log2 fold change turn out when RPL35 (UniProt P42766) was run?
The log2 fold change was inactive: -0.12.

Which log2 fold change does the source give for RNPS1 (UniProt Q15287) here?
The log2 fold change was inactive: -0.022.

RRAGB (UniProt Q5VZM2) was tested. Which log2 fold change did it give?
The log2 fold change was inactive: 0.021.

With RNF7 (UniProt Q9UBF6) as the target, how does the log2 fold change read?
Its log2 fold change is inactive: 0.034.

RPN1 (UniProt P04843) was tested. Which log2 fold change did it give?
Its log2 fold change is inactive: -0.004.

Which log2 fold change does the source give for RPL8 (UniProt P62917) here?
The log2 fold change was inactive: -0.165.

For RPL19 (UniProt P84098), which log2 fold change is on record?
Its log2 fold change is inactive: -0.12.

How did the log2 fold change turn out when RPS17 (UniProt P08708) was run?
The log2 fold change was inactive: -0.024.

RPS27A (UniProt P62979) was tested. Which log2 fold change did it give?
The log2 fold change was inactive: 0.004.

Each target was assayed with C1=CC=C2C(=C1)C3=NNC4=CC=CC(=C43)C2=O in the same assay as above.
Procedure, shortened: as §1

Which log2 fold change does the source give for RPLP2 (UniProt P05387) here?
The log2 fold change was inactive: -0.001.

For RPP38 (UniProt P78345), which log2 fold change is on record?
The log2 fold change was inactive: -0.011.

Which log2 fold change does the source give for RPL29 (UniProt P47914) here?
Its log2 fold change is inactive: 0.025.

Which log2 fold change does the source give for RPL36 (UniProt Q9Y3U8) here?
Its log2 fold change is inactive: 0.022.

Which log2 fold change does the source give for RPS18 (UniProt P62269) here?
The log2 fold change was inactive: 0.

With RPS3 (UniProt P23396) as the target, how does the log2 fold change read?
The log2 fold change was inactive: -0.03.

For RPL3L (UniProt Q92901), which log2 fold change is on record?
Its log2 fold change is inactive: 0.009.

How did the log2 fold change turn out when RPTOR (UniProt Q8N122) was run?
Its log2 fold change is inactive: -0.031.

Which log2 fold change does the source give for RPL10 (UniProt P27635) here?
The log2 fold change was inactive: 0.018.

With RNH1 (UniProt P13489) as the target, how does the log2 fold change read?
Its log2 fold change is inactive: -0.009.

RPA1 (UniProt P27694) was tested. Which log2 fold change did it give?
The log2 fold change was inactive: 0.075.

With RPP30 isoform 2 (UniProt P78346) as the target, how does the log2 fold change read?
The log2 fold change was inactive: -0.039.

Which log2 fold change does the source give for RPS6KA1 isoform 2 (UniProt Q15418) here?
The log2 fold change was active: -0.377.

For RNPEP (UniProt Q9H4A4), which log2 fold change is on record?
The log2 fold change was inactive: -0.008.

RPS6KB1 (UniProt P23443) was tested. Which log2 fold change did it give?
Its log2 fold change is inactive: 0.006.

How did the log2 fold change turn out when RPL18A (UniProt Q02543) was run?
The log2 fold change was inactive: 0.042.

RO60 (UniProt P10155) was tested. Which log2 fold change did it give?
The log2 fold change was inactive: -0.046.

For RPS3A (UniProt P61247), which log2 fold change is on record?
The log2 fold change was inactive: 0.

Which log2 fold change does the source give for RPS6KA2 isoform 2 (UniProt Q15349) here?
Its log2 fold change is active: -0.473.

For RPL28 (UniProt P46779), which log2 fold change is on record?
The log2 fold change was inactive: 0.03.

For RPS12 (UniProt P25398), which log2 fold change is on record?
The log2 fold change was inactive: -0.02.

For RPS6KC1 (UniProt Q96S38), which log2 fold change is on record?
Its log2 fold change is inactive: -0.156.

Which log2 fold change does the source give for RNMT isoform 2 (UniProt O43148) here?
Its log2 fold change is inactive: -0.029.

For RPP21 isoform 4 (UniProt Q9H633), which log2 fold change is on record?
Its log2 fold change is inactive: 0.047.

Which log2 fold change does the source give for RPS4X (UniProt P62701) here?
The log2 fold change was inactive: 0.043.

With RPS24 isoform 4 (UniProt P62847) as the target, how does the log2 fold change read?
The log2 fold change was inactive: -0.018.

RPL23A (UniProt P62750) was tested. Which log2 fold change did it give?
The log2 fold change was inactive: 0.018.

Which log2 fold change does the source give for RPS19 (UniProt P39019) here?
Its log2 fold change is inactive: -0.015.

How did the log2 fold change turn out when RPA2 isoform 3 (UniProt P15927) was run?
Its log2 fold change is inactive: -0.015.

How did the log2 fold change turn out when RNF34 isoform 2 (UniProt Q969K3) was run?
The log2 fold change was inactive: 0.073.

How did the log2 fold change turn out when RPL3 (UniProt P39023) was run?
The log2 fold change was inactive: 0.019.

For RPL35 (UniProt P42766), which log2 fold change is on record?
The log2 fold change was inactive: -0.016.

Which log2 fold change does the source give for RNPS1 (UniProt Q15287) here?
The log2 fold change was inactive: -0.319.

With RRAGB (UniProt Q5VZM2) as the target, how does the log2 fold change read?
The log2 fold change was inactive: 0.082.

RNF7 (UniProt Q9UBF6) was tested. Which log2 fold change did it give?
Its log2 fold change is inactive: -0.095.

RPN1 (UniProt P04843) was tested. Which log2 fold change did it give?
The log2 fold change was inactive: -0.007.

How did the log2 fold change turn out when RPL8 (UniProt P62917) was run?
The log2 fold change was inactive: 0.06.

RPL19 (UniProt P84098) was tested. Which log2 fold change did it give?
The log2 fold change was inactive: 0.016.

With RPS17 (UniProt P08708) as the target, how does the log2 fold change read?
The log2 fold change was inactive: -0.017.

How did the log2 fold change turn out when RPS27A (UniProt P62979) was run?
Its log2 fold change is inactive: -0.062.

Source: the supplement of paper PMC10849652
